PubChem BioAssay AID743121 – NCATS | 2013
Assay: 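Genes whose silencing strengthens cell killing by camptothecin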 (primary screen). Cell system: MDA-MB-231 cells, a human breast cancer line. Reagents: single siRNA against human genes, 20 nM siRNA (0.8 pmol per well). Time to read-out: 120 h (drug added 48 h after transfection, read 72 h later). Treatment: camptothecin 20 nM (about EC30) for 72 h; vehicle 0.1% DMSO in parallel plates. Measured: 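CellTiter-Glo ATP signal, scaled to control siRNA as percent viability; sensitisation given as log2 of untreated divided by camptothecin-treated viability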. Direction: log2 vehicle/camptothecin viability: higher = stronger sensitisation to camptothecin; viability with camptothecin: higher = more viable cells. Call rule: 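Active genes have an RSA gene-level p-value below 0.001, computed from the ratios of their separate siRNAs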.
In all, the deposit lists about 26,000 reagents; shown is an unselected part. Of all reagents, 167 (0.63%) got an active call. 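Calls are per gene from RSA p-values that are not deposited; an individual active-marked siRNA can sensitise only weakly.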 The numbers tell different reagents against one gene apart. Not all columns of the deposit are shown.

Against NPY2R #1, the entry reads log2 vehicle/camptothecin viability -0.636; viability with camptothecin (% of control) = 89; inactive.
For NPY2R #2, the entry reads log2 vehicle/camptothecin viability -0.222; viability with camptothecin (% of control) = 87.8; inactive.
After knock-down of NPY2R #3 the results were log2 vehicle/camptothecin viability -0.131; viability with camptothecin (% of control) = 111; inactive.
Against NPY2R #4, the entry reads log2 vehicle/camptothecin viability -0.342; viability with camptothecin (% of control) = 79.9; inactive.
After knock-down of STX19 #1, the screen gave log2 vehicle/camptothecin viability -0.316; viability with camptothecin (% of control) = 71.1; inactive.
For STX19 #2, the values are log2 vehicle/camptothecin viability -0.395; viability with camptothecin (% of control) = 64.4; inactive.
Silencing of STX19 #3 resulted in: log2 vehicle/camptothecin viability 0.00705; viability with camptothecin (% of control) = 91.4; inactive.
After knock-down of STX19 #4, the record shows log2 vehicle/camptothecin viability -0.278; viability with camptothecin (% of control) = 46.5; inactive.
Against FPR3 #1, the values are log2 vehicle/camptothecin viability -0.338; viability with camptothecin (% of control) = 100; inactive.
Depletion of FPR3 #2 gave: log2 vehicle/camptothecin viability 1.41; viability with camptothecin (% of control) = 18.5; inactive.
FPR3 #3 gave log2 vehicle/camptothecin viability -0.416; viability with camptothecin (% of control) = 106; inactive.
Knock-down of FPR3 #4 resulted in: log2 vehicle/camptothecin viability -0.343; viability with camptothecin (% of control) = 94.5; inactive.
Knock-down of ANGPTL2 #1 resulted in: log2 vehicle/camptothecin viability 0.00443; viability with camptothecin (% of control) = 80.1; inactive.
Knock-down of ANGPTL2 #2 gave: log2 vehicle/camptothecin viability 0.134; viability with camptothecin (% of control) = 86.9; inactive.
After knock-down of ANGPTL2 #3, the record shows log2 vehicle/camptothecin viability 0.15; viability with camptothecin (% of control) = 44.6; inactive.
Silencing of MYCN #1 gave: log2 vehicle/camptothecin viability -0.0962; viability with camptothecin (% of control) = 68.6; inactive.
MYCN #2 showed log2 vehicle/camptothecin viability 0.063; viability with camptothecin (% of control) = 81.1; inactive.
MYCN #3 showed log2 vehicle/camptothecin viability -0.339; viability with camptothecin (% of control) = 114; inactive.
For MYCN #4, the values are log2 vehicle/camptothecin viability -0.64; viability with camptothecin (% of control) = 89.5; inactive.
ASB14 #1 gave log2 vehicle/camptothecin viability 0.305; viability with camptothecin (% of control) = 49.6; inactive.
Knock-down of ASB14 #2 came out at: log2 vehicle/camptothecin viability -0.585; viability with camptothecin (% of control) = 38.3; inactive.
With knock-down of ASB14 #3, the screen gave log2 vehicle/camptothecin viability -0.296; viability with camptothecin (% of control) = 118; inactive.

A stretch from the list above, for reference:
STX19 #4 → log2 vehicle/camptothecin viability: -0.278; viability with camptothecin (% of control): 46.5; activity call: inactive
FPR3 #1 → log2 vehicle/camptothecin viability: -0.338; viability with camptothecin (% of control): 100; activity call: inactive
FPR3 #2 → log2 vehicle/camptothecin viability: 1.41; viability with camptothecin (% of control): 18.5; activity call: inactive
FPR3 #3 → log2 vehicle/camptothecin viability: -0.416; viability with camptothecin (% of control): 106; activity call: inactive

Continued:
With knock-down of PITPNM3 #1, the screen gave log2 vehicle/camptothecin viability -0.116; viability with camptothecin (% of control) = 69.9; inactive.
Silencing of PITPNM3 #2 came out at: log2 vehicle/camptothecin viability 0.563; viability with camptothecin (% of control) = 28.1; inactive.
PITPNM3 #3 gave log2 vehicle/camptothecin viability 0.0787; viability with camptothecin (% of control) = 86.7; inactive.
With knock-down of PITPNM3 #4, the screen gave log2 vehicle/camptothecin viability -0.00893; viability with camptothecin (% of control) = 105; inactive.
Against GAB2 #1 the deposit lists log2 vehicle/camptothecin viability 0.0568; viability with camptothecin (% of control) = 72.7; inactive.
Depletion of GAB2 #2 gave: log2 vehicle/camptothecin viability -0.271; viability with camptothecin (% of control) = 46.3; inactive.
After knock-down of GAB2 #3, the record shows log2 vehicle/camptothecin viability 0.693; viability with camptothecin (% of control) = 27.6; inactive.
Silencing of GAB2 #4 resulted in: log2 vehicle/camptothecin viability -0.486; viability with camptothecin (% of control) = 84.1; inactive.
CDK16 #1 scored log2 vehicle/camptothecin viability -0.231; viability with camptothecin (% of control) = 131; inactive.
For CDK16 #2, the entry reads log2 vehicle/camptothecin viability 0.337; viability with camptothecin (% of control) = 50; inactive.
After knock-down of CDK16 #3, the record shows log2 vehicle/camptothecin viability -0.506; viability with camptothecin (% of control) = 93.9; inactive.
For CDK16 #4, the entry reads log2 vehicle/camptothecin viability -0.441; viability with camptothecin (% of control) = 84.6; inactive.
RAP1A #1 gave log2 vehicle/camptothecin viability -0.34; viability with camptothecin (% of control) = 89.5; inactive.
Knock-down of RAP1A #2 came out at: log2 vehicle/camptothecin viability 0.0666; viability with camptothecin (% of control) = 78.9; inactive.
RAP1A #3 scored log2 vehicle/camptothecin viability -0.13; viability with camptothecin (% of control) = 46.9; inactive.
